Not every detail of the peptide structures is certain; ends, links or a residue may be inferred. Ends that are not written are not given here.
System: GM7373 cells
Experiment: Cell proliferation assay, endothelial GM7373 cells
Format: cell-based, bovine
Details: FGF2 0.55 nM, peptides 66 μM, PTX3 220 nM
Method: Cell proliferation assay on endothelial cells was performed as described^22. Briefly, GM7373 or MAE cells were seeded in 96-well dishes at 75,000 cells/cm^2 or 25,000 cells/cm^2, respectively. After 16 h, cells were incubated in fresh medium containing 0.4% FCS plus FGF2 (0.55 nM) in the absence or in the presence of different antagonists. After 24 or 48 h, respectively, cells were trypsinized and counted in a Burker chamber.

EGLRGELRGSREAELLRQAARAPACPLPE [scrambled PTX3(82-110), reference compound]
inhibition of mitogenic activity exerted by FGF2: ineffective
